Laboratory results taken from PubChem BioAssay AID720504 (National Center for Advancing Translational Sciences (NCATS), 2013).
Hit rate of the full screen: of about 360,000 compounds, about 10,000 (2.8%) were called active. This list was built around the results that the source calls inconclusive (neither active nor inactive); the mix of calls is not that of the screen. Calls come from the whole dose curve; as a rule, active = well fitted inhibition curve with a large enough effect; inconclusive = small, poorly fitted or top-dose-only effect; inactive = flat fitted curve, though single readings scatter. Where the call is inconclusive, the potency comes from a doubtful curve fit.

By UniProt entry, the sequences of proteins in these tests, tags left out.
UniProt P53350, whole entry, looked up: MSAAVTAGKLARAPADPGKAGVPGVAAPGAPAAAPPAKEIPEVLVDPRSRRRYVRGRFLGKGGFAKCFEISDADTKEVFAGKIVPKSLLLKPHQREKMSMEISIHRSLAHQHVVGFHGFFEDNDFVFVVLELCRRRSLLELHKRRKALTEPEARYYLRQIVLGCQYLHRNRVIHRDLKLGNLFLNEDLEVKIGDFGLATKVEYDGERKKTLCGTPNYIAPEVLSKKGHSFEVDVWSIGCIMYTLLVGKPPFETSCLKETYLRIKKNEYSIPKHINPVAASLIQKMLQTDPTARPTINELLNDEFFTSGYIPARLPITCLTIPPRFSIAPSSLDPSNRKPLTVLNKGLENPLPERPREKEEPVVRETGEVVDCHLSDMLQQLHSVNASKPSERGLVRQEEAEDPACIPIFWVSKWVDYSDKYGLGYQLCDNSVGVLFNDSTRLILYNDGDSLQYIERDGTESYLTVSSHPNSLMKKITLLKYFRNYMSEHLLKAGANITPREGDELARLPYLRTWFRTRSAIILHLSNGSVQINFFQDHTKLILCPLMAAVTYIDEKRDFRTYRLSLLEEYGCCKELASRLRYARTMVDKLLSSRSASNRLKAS

molecular target: Serine/threonine-protein kinase PLK1 (Homo sapiens) (UniProt P53350); assay: qHTS for Inhibitors of PLK1-PDB (polo-like kinase 1 - polo-box domain): Primary Screen; details: Plk1 PBD binding of FITC phosphopeptide, fluorescence polarization; note: nearly all actives have a fitted effect of over 65% in size; for max response, negative = inhibition: series mostly up to about 57 µM
% is set by controls: 0 for no effect and ±100 for the full control effect; potency is the fitted concentration of half-maximal effect.

**Q.** Which Potency does the source give for CN(C(=O)CSc1ncnc2sc3c(c12)CCC3)C1CCS(=O)(=O)C1 (stereo not drawn) here?
**A.** inconclusive: 29.9 µM [inhibitor, partial curve]

**Q.** Cc1nc(C)c(C(=O)O)c(-c2ccsc2)c1C(=O)O was tested. Which max response, negative = inhibition did it give?
**A.** inactive: -3.53%

**Q.** Which Potency does the source give for O=C1Oc2ccccc2C(=O)/C1=C/N1CCN(c2ccccc2F)CC1 here?
**A.** inconclusive: 29.9 µM [inhibitor, partial curve]

**Q.** Which Potency does the source give for COc1ccc(/C=C2/SC(=O)N(CC(O)Cn3c4ccccc4c4ccccc43)C2=O)cc1 (stereo not drawn) here?
**A.** active: 29.9 µM

**Q.** Cc1ccc(-c2nc(Nc3cccc(O)c3)c3ccccc3n2)cc1 was tested. Which max response, negative = inhibition did it give?
**A.** inactive: -0.961%

**Q.** COc1ccc(C(=O)NCC(=O)N2CCN(C(=O)c3ccco3)CC2)cc1 was tested. Which Potency did it give?
**A.** inconclusive: 33.6 µM [inhibitor, single point]

**Q.** With COc1ccccc1CCc1nnc(CCC(=O)NCC2CCCO2)o1 (stereo not drawn) as the compound, how does the max response, negative = inhibition read?
**A.** inactive: -0.193%

**Q.** For CCN(CC)c1ccc(C(=S)NCc2ccccc2)cc1, which Potency is on record?
**A.** inconclusive: 18.9 µM [inhibitor, partial curve]

**Q.** How did the Potency turn out when CSc1ccccc1NC(=O)CNCCCN1CCOCC1 was run?
**A.** inconclusive: 29.9 µM [inhibitor, partial curve]

**Q.** CCc1nnc(NS(=O)(=O)c2ccc(NC(=S)NC(=O)/C=C/c3ccc(C(C)C)cc3)cc2)s1 was tested. Which Potency did it give?
**A.** active: 21.2 µM

**Q.** CN(C)c1ccc(S(=O)(=O)NCC(=O)NCc2ccccc2)cc1[N+](=O)[O-] was tested. Which Potency did it give?
**A.** active: 11.9 µM

**Q.** CC1(C)CC(=O)C(C(C2=C(O)CC(C)(C)CC2=O)c2ccc(O)c([N+](=O)[O-])c2)=C(O)C1 was tested. Which Potency did it give?
**A.** active: 4.74 µM

**Q.** How did the max response, negative = inhibition turn out when Cc1cc([N+](=O)[O-])nn1CC(=O)Nc1nccs1 was run?
**A.** inactive: -12.7%

**Q.** O=C(NC(=S)Nc1ccccc1O)c1ccc(-c2ccc(Cl)cc2)o1 was tested. Which Potency did it give?
**A.** inconclusive: 26.7 µM [inhibitor, single point]

**Q.** With CC1CCCC(C)N1CC(O)COc1c(F)cc(Br)cc1F (stereo not drawn) as the compound, how does the Potency read?
**A.** active: 21.2 µM

**Q.** How did the Potency turn out when Cc1ccc(Cl)c2c(N=Nc3ccccc3)c(O)[nH]c12 was run?
**A.** inconclusive: 16.8 µM [inhibitor, partial curve]

**Q.** For Cc1c(C(=O)NCc2nnc(-c3ccccc3)o2)oc2c(F)cccc12, which max response, negative = inhibition is on record?
**A.** inactive: -5.92%

**Q.** With COc1ccc(Cl)cc1NC(=O)CSc1nnc(CNC(=O)c2cccs2)o1 as the compound, how does the Potency read?
**A.** inconclusive: 16.8 µM [inhibitor, partial curve]

**Q.** For COc1ccc(N(CC(=O)N/N=C/c2ccc3c(c2)OCO3)S(=O)(=O)c2ccc(NC(C)=O)cc2)cc1, which Potency is on record?
**A.** active: 26.7 µM

**Q.** For CC1(C)CC(N2CCCC2)=CC(=[N+]2CCCC2)C1, which Potency is on record?
**A.** inconclusive: 33.6 µM [inhibitor, single point]

**Q.** Which max response, negative = inhibition does the source give for C=CCOC(=O)C1=C[C@H](c2ccc(Br)cc2)C[C@H](OCc2ccc(CO)cc2)O1 here?
**A.** inactive: -5.08%

**Q.** With COc1ccccc1CNC(=O)COc1ccc(C)cc1 as the compound, how does the Potency read?
**A.** inconclusive: 26.7 µM [inhibitor, single point]

**Q.** Which Potency does the source give for CCOC(=O)c1sc(=S)n(-c2cc(OC)ccc2OC)c1N here?
**A.** active: 2.67 µM

**Q.** With COc1ccccc1N1CCNC(C)C1=O (stereo not drawn) as the compound, how does the Potency read?
**A.** active: 8.44 µM

**Q.** With Cc1ccc2c(c1)C(O)(CC(=O)c1cccc(-n3cccc3)c1)C(=O)N2 (stereo not drawn) as the compound, how does the Potency read?
**A.** inconclusive: 29.9 µM [inhibitor, single point]

**Q.** For COc1ccc(NC(=O)N(C)C[C@H]2Oc3c(NC(=O)c4nc5ccccc5s4)cccc3C(=O)N([C@@H](C)CO)C[C@H]2C)cc1, which max response, negative = inhibition is on record?
**A.** inactive: -9.91%

**Q.** For O=C(O)CCN1C(=O)/C(=C\c2ccc(-c3nc4ccccc4s3)o2)SC1=S, which Potency is on record?
**A.** active: 8.44 µM

**Q.** For N#Cc1c(N2CCCCC2)nc(N)c2c(N)nc(SCC(=O)O)cc12, which Potency is on record?
**A.** inconclusive: 6.7 µM [inhibitor, full curve]

**Q.** How did the Potency turn out when Cc1ccccc1C(=O)NC1CCN(C(=O)NCc2ccccc2)CC1 was run?
**A.** inconclusive: 29.9 µM [inhibitor, single point]

**Q.** How did the Potency turn out when CSc1ccccc1NC(=O)C1CC(c2ccccc2Cl)=NO1 (stereo not drawn) was run?
**A.** inconclusive: 26.7 µM [inhibitor, partial curve]

**Q.** With COc1ccc(OC)c(CC(NC(C)=O)C(=O)NC2CCN(S(=O)(=O)c3ccc(NC(C)=O)cc3)CC2)c1 (stereo not drawn) as the compound, how does the max response, negative = inhibition read?
**A.** inactive: 2.4%

**Q.** With O=C1CCCCCCC1Sc1ccccc1[N+](=O)[O-] (stereo not drawn) as the compound, how does the Potency read?
**A.** inconclusive: 23.8 µM [inhibitor, partial curve]

**Q.** How did the max response, negative = inhibition turn out when OC(COc1ccc(Cl)cc1)CN1CCN(c2ccccn2)CC1 (stereo not drawn) was run?
**A.** inactive: 3.5%

**Q.** How did the max response, negative = inhibition turn out when Cc1ccc(C)c(-n2ccnc2SCC(=O)c2c(N)n(C3CC3)c(=O)[nH]c2=O)c1 was run?
**A.** inconclusive: -34.9% [inhibitor]

**Q.** How did the Potency turn out when O=C(CS(=O)(=O)c1ccccc1)c1ccc2c(c1)OCCO2 was run?
**A.** inconclusive: 29.9 µM [inhibitor, partial curve]

**Q.** With Cc1cn([C@H]2C[C@H](N=[N+]=[N-])[C@@H](CO)O2)c(=O)[nH]c1=O as the compound, how does the Potency read?
**A.** inconclusive: 29.9 µM [inhibitor, partial curve]

**Q.** With CCCCCCCCS(=O)c1sc2nc(C)cc(C)c2c1N (stereo not drawn) as the compound, how does the Potency read?
**A.** inconclusive: 29.9 µM [inhibitor, partial curve]

**Q.** With COc1ccc(Nc2nc(-c3c(C)nc4ncccn34)cs2)cc1 as the compound, how does the max response, negative = inhibition read?
**A.** inactive: -3.19%

**Q.** CCc1ccc(C(=O)NNC(=S)Nc2ccc(S(N)(=O)=O)cc2)s1 was tested. Which max response, negative = inhibition did it give?
**A.** inactive: -16.4%

**Q.** Which Potency does the source give for S=C(NCc1ccco1)Nc1ccc(Cl)cn1 here?
**A.** inconclusive: 18.9 µM [inhibitor, partial curve]

**Q.** S=c1nc[nH]c2c1[nH]c1ccc(Cl)cc12 was tested. Which Potency did it give?
**A.** inconclusive: 1.5 µM [inhibitor, full curve]

**Q.** CC(=O)c1cnc2nc(SCc3ccc(C)cc3)nn2c1C was tested. Which Potency did it give?
**A.** active: 23.8 µM

**Q.** How did the Potency turn out when Cc1nc(SCC(=O)c2ccc(F)cc2)n[nH]1 was run?
**A.** active: 26.7 µM

**Q.** How did the Potency turn out when COc1ccc(NC(=O)CSc2ccc([N+](=O)[O-])cc2)cc1S(=O)(=O)N1CCOCC1 was run?
**A.** inconclusive: 26.7 µM [inhibitor, partial curve]

**Q.** With CCC(C)COC(c1ccccc1)(c1ccccc1)C(Oc1nc(C)cc(C)n1)C(=O)O (stereo not drawn) as the compound, how does the max response, negative = inhibition read?
**A.** inconclusive: -30.2% [inhibitor]

**Q.** With COc1cccc2cc(C(=O)NC(C)C3CCCO3)c(=O)oc12 (stereo not drawn) as the compound, how does the max response, negative = inhibition read?
**A.** inconclusive: -31.8% [inhibitor]

**Q.** Which max response, negative = inhibition does the source give for CC(CNc1nc2ccccc2n2cnnc12)c1ccccc1 (stereo not drawn) here?
**A.** inconclusive: -32.4% [inhibitor]

**Q.** NC(=O)c1cc2c3ccccc3ccn2c1-c1ccccc1 was tested. Which Potency did it give?
**A.** inconclusive: 26.7 µM [inhibitor, single point]

**Q.** For COCCn1c(SCCCC(=O)c2ccc(Br)cc2)nnc1-c1ccncc1, which max response, negative = inhibition is on record?
**A.** inactive: 3.48%

**Q.** Which Potency does the source give for NC(=O)NCc1ccc(F)cc1 here?
**A.** inconclusive: 26.7 µM [inhibitor, single point]

**Q.** With CCN1CCN(CCCNC(=O)Cn2nc(C)n3nc(-c4ccccc4)cc3c2=O)CC1 as the compound, how does the Potency read?
**A.** inconclusive: 26.7 µM [inhibitor, single point]

**Q.** With CCOC(=O)COc1ccc(S(=O)(=O)N2CCN(c3ccc(OC)cc3)CC2)cc1 as the compound, how does the Potency read?
**A.** inconclusive: 33.6 µM [inhibitor, single point]

**Q.** Which Potency does the source give for CC(=O)c1ccc(Nc2ccc(-c3ccccc3C)nn2)cc1 here?
**A.** inconclusive: 29.9 µM [inhibitor, partial curve]

**Q.** Cc1ccc(C2C(C(=O)c3ccco3)=C(O)C(=O)N2c2ncccn2)cc1 (stereo not drawn) was tested. Which max response, negative = inhibition did it give?
**A.** inactive: -10.7%

**Q.** How did the max response, negative = inhibition turn out when CSc1ccccc1NC(=O)c1cnccn1 was run?
**A.** inactive: -10.2%

**Q.** How did the Potency turn out when CCc1nnc(NS(=O)(=O)c2ccc(NC(=S)NC(=O)/C=C/c3cccs3)cc2)s1 was run?
**A.** inconclusive: 23.8 µM [inhibitor, single point]

**Q.** COc1ccc(CC(=O)NNC(=S)NC(=O)c2cc(OC)c(OC)c(OC)c2)cc1 was tested. Which max response, negative = inhibition did it give?
**A.** inconclusive: -30.6% [inhibitor]

**Q.** For Cc1ccc(C)c(NC(=O)CCN2CCCC(C)C2)c1 (stereo not drawn), which max response, negative = inhibition is on record?
**A.** inactive: -4.38%

**Q.** CCC(Sc1nc(C)cc(=O)[nH]1)C(=O)Nc1sc2c(c1C#N)CCCC2 (stereo not drawn) was tested. Which Potency did it give?
**A.** inconclusive: 37.7 µM [inhibitor, single point]

**Q.** Which max response, negative = inhibition does the source give for Cc1cccc(C(=O)NC2C(=O)NNC2c2ccc(Cl)cc2)c1 (stereo not drawn) here?
**A.** inactive: -26.7%

**Q.** For CCN(CC(=O)NCc1ccc(Cl)cc1)Cc1cc(=O)n2ccsc2n1, which Potency is on record?
**A.** inconclusive: 37.7 µM [inhibitor, single point]

**Q.** With O=c1c2ccccc2c(C=Nc2cccc(S(=O)(=O)NCc3ccco3)c2)c(O)n1-c1ccc(Cl)cn1 as the compound, how does the Potency read?
**A.** inconclusive: 23.8 µM [inhibitor, partial curve]

**Q.** How did the max response, negative = inhibition turn out when CCCC(=O)N1CCN(c2ccc([N+](=O)[O-])cc2Cl)CC1 was run?
**A.** inactive: -14.7%

**Q.** Which Potency does the source give for COCCNCc1ccccc1 here?
**A.** active: 29.9 µM

**Q.** With COc1ccc(CN(Cc2ccc(C(=O)O)cc2)C(=S)Nc2cc(C)cc(C)c2)cc1OC as the compound, how does the max response, negative = inhibition read?
**A.** inactive: -7.88%

**Q.** Cc1c(OC(=O)c2ccc([N+](=O)[O-])cc2)c2c(c[n+]1C)COC(C)(C)OC2 was tested. Which Potency did it give?
**A.** inconclusive: 29.9 µM [inhibitor, single point]

**Q.** COc1ccc(NC(=S)N(Cc2ccc(N(C)C)cc2)Cc2ccco2)cc1 was tested. Which max response, negative = inhibition did it give?
**A.** inactive: -6.81%

**Q.** With Cc1cc(C)c2[nH]c(=S)cc(C)c2c1 as the compound, how does the Potency read?
**A.** inconclusive: 16.8 µM [inhibitor, partial curve]

**Q.** Which Potency does the source give for C=CCn1c(=NC(=O)CN2C(=O)CCC2=O)sc2cc(S(N)(=O)=O)ccc21 here?
**A.** inconclusive: 33.6 µM [inhibitor, single point]

**Q.** Which max response, negative = inhibition does the source give for O=C(CCNC(=O)C1CCN(S(=O)(=O)c2ccc(F)cc2)CC1)NCc1ccncc1 here?
**A.** inactive: -14.9%

**Q.** CC(=O)N1CCN(C(=O)c2ccc(-c3cccc(C(F)(F)F)c3)o2)CC1 was tested. Which max response, negative = inhibition did it give?
**A.** inactive: -10.3%

**Q.** For COc1ccc(C(=O)NNC(=O)C(Cc2ccc(O)cc2)NC(=O)c2ccccc2NC(=O)c2ccc(OC)cc2)cc1 (stereo not drawn), which max response, negative = inhibition is on record?
**A.** inactive: -3.91%

**Q.** Which max response, negative = inhibition does the source give for COc1cccc(C2C(C(C)=O)=C(O)C(=O)N2CCc2c[nH]c3ccccc23)c1 (stereo not drawn) here?
**A.** inactive: -8.55%
